# Screen size: about 400,000 compounds; about 5,500 (1.4%) were called active. Inconclusive results, whose numbers are uncertain, are shown with a selection of clear calls. Calls come from the whole dose curve; as a rule, active = well fitted cell-killing curve with a large enough effect; inconclusive = small, poorly fitted or top-dose-only effect, or effect the other way; inactive = flat fitted curve, though single readings scatter. Potencies beside an inconclusive call are fits to weak or partial responses and may not hold up.
# Assay: qHTS assay for MDR1-selective chemotherapeutics: Primary screen using the parental adenocarcinoma cell KB-3-1; note: nearly all actives have a fitted effect of over 60% in size
# Settings: KB-3-1 viability, CellTiter-Glo ATP luminescence, 72 h; activity change, negative = cytotoxic: at 46.1 µM (top of the series)
# Summary of the method: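 Viability of parental KB-3-1 cells, measured by CellTiter-Glo luminescence, followed a 72 h incubation at 37 °C with pinned compounds in phenol-red-free DMEM containing 10% FBS.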
# % is set by controls: 0 for no effect and ±100 for the full control effect; potency is the fitted concentration of half-maximal effect.
Structure (SMILES),"activity change, negative = cytotoxic",Potency
CC(C)Cn1nc(NC(=O)C2CCCO2)c2cc3ccccc3nc21 (stereo unspecified),inactive: 5.08%,–
Cn1nccc1C(=O)NC1CCCc2c1cnn2-c1ccc(C(C)(C)C)cc1 (stereo unspecified),–,"inconclusive: 0.651 µM [cytotoxic, full curve, poor fit]"
COc1ccc(S(=O)(=O)N2CCCC2)cc1NC(=O)c1ccccc1,inconclusive: -13%,–
CC(=O)c1ccc(NC(=O)Cn2cnc(S(=O)(=O)N3CCc4ccccc43)c2)cc1,inactive: 2.96%,–
NC(N)=NC(=O)c1nc(Cl)c(N2CCCCCC2)nc1N,inconclusive: -0.233%,–
CC1=C(C(=O)OCc2ccccc2)C(c2ccc([N+](=O)[O-])cc2)NC(=O)N1 (stereo unspecified),–,"inconclusive: 16.4 µM [cytotoxic, single point]"
O=[N+]([O-])c1cc(S(=O)(=O)NC2=NCCCCC2)ccc1NCC1CCCCC1,–,"inconclusive: 29.1 µM [cytotoxic, single point]"
CCN(CC)C(=O)c1ccc2c(=O)n(Cc3ccc4c(c3)OCO4)c(=S)[nH]c2c1,–,"inconclusive: 29.1 µM [cytotoxic, partial curve, poor fit]"
CC(=NNC(=S)N1CCN(c2ccccn2)CC1)c1nccs1,–,"inconclusive: 0.411 µM [cytotoxic, full curve, poor fit]"
CCc1cc2c(=O)c(-c3cnn(-c4ccccc4)c3)c(C)oc2cc1OCC(=O)Nc1cccc(C)c1,–,"inconclusive: 23.1 µM [cytotoxic, partial curve, poor fit]"
O=C(CN1C(=O)NC2(CCCCC2)C1=O)Nc1cccc(Cl)c1Cl,inactive: -23.6%,–
Cc1cc(C)cc(-n2c(C)c3c(C)nnc(C)c3c2C)c1,–,"inconclusive: 20.6 µM [cytotoxic, single point]"
COc1cc(CNCc2ccncc2)cc(Br)c1OCc1ccccc1F,–,active: 4.11 µM
O=C(c1ccncc1)N(Cc1cc2ccccc2[nH]c1=O)C1CCCCC1,–,active: 9.2 µM
C=C(C(=O)c1ccccc1)C(C)C(=C)C(=O)c1ccccc1,–,"inconclusive: 3.26 µM [cytotoxic, full curve]"
COc1cccc(NC(=O)[C@@H](NC(=O)N2CCn3c2nc2ccccc23)C(C)C)c1,inconclusive: -37.3% [cytotoxic],–
N#CC1=C(N)Oc2cc(N)ccc2C1C1CC=CCC1 (stereo unspecified),–,"inconclusive: 8.2 µM [cytotoxic, partial curve, poor fit]"
COc1ccc(CN2CCN(Cc3ccc4ccccc4c3)CC2)cc1OC,–,"inconclusive: 29.1 µM [cytotoxic, single point]"
COc1ccc(NS(=O)(=O)c2cc(NC(=O)[C@@H](NC(N)=O)C(C)C)ccc2C)cc1,–,"inconclusive: 23.1 µM [cytotoxic, single point]"
CCCC(=O)Nc1sc(C(=O)Nc2cccc(N)c2)c(C)c1C(=O)OC,–,"inconclusive: 10.3 µM [cytotoxic, partial curve]"
CS(=O)(=O)Nc1cccc(NC(=O)C2Cc3c(-c4ccco4)ccnc3O2)c1 (stereo unspecified),–,"inconclusive: 20.6 µM [cytotoxic, single point]"
COc1cccc(CN(C)C(=O)C(CCSC)NS(=O)(=O)c2ccc3c(c2)OCCO3)c1OC (stereo unspecified),inactive: -28%,–
Cc1ccc(OCc2nnc(SCc3nc4ccccc4[nH]3)n2Cc2ccco2)cc1,–,"inconclusive: 23.1 µM [cytotoxic, single point]"
Cc1ccc(S(=O)(=O)NCC(=O)NCC2COc3ccccc3O2)cc1C (stereo unspecified),inactive: -4.42%,–

Structure (SMILES),"activity change, negative = cytotoxic",Potency
CCC(Sc1nc(-c2ccc(F)cc2)nc2c1Cc1c(CO)cnc(C)c1O2)C(=O)Nc1ccc(F)cc1 (stereo unspecified),inactive: 0.957%,–
CCc1nc2c(OCc3ccccc3)cccn2c1N(C)C(=O)c1ccc2c(c1)OCO2,inactive: 0%,–
Cc1cc(C(=O)c2ccc(Cl)cc2)c(NC(=O)CCl)s1,–,"inconclusive: 29.1 µM [cytotoxic, single point]"
COc1ccccc1-c1cc(NC=O)c2ncc(-c3ccc(F)cc3)n2c1,–,active: 16.4 µM
Oc1[nH]c2c(Cl)cc(Cl)cc2c1N=NC(=S)NCC1CCCO1 (stereo unspecified),–,active: 5.8 µM
Cc1ccc(C)c(NC(=S)NC(NC(=O)Cc2cccc3ccccc23)C(Cl)(Cl)Cl)c1 (stereo unspecified),–,"inconclusive: 29.1 µM [cytotoxic, single point]"
COc1ccc2cc(C#N)c(N3CCN(Cc4nnnn4CCC(C)C)CC3)nc2c1,–,"inconclusive: 20.6 µM [cytotoxic, single point]"
CCS(=O)(=O)N1CCc2cc(C(=O)N3CCN(c4ccccc4OC)CC3)ccc21,–,active: 14.6 µM
Cc1ccc(-n2nc3c(=O)n(CC(=O)NCCc4ccccc4C)nc(C)c3c2C)cc1,–,"inconclusive: 23.1 µM [cytotoxic, single point]"
CC(=O)c1c(C)[nH]c(C(=O)Nc2cccc(S(=O)(=O)N(C)C)c2)c1C,inactive: 0%,–
CC(C)C[C@@H]1Cc2[nH]c(=S)[nH]c(=O)c2[C@H](C)O1,–,"inconclusive: 16.4 µM [cytotoxic, single point]"
CC1Nc2ncnc(N3CCc4ccccc4C3)c2N(Cc2ccc(Br)cc2)C1=O (stereo unspecified),–,"inconclusive: 29.1 µM [cytotoxic, single point]"
CCCCC1CCC(C(=O)N(CCCC)c2c(N)n(CCCC)c(=O)[nH]c2=O)CC1 (stereo unspecified),–,"inconclusive: 18.4 µM [cytotoxic, single point]"
O=C(NC(O)C(=O)c1ccccc1)c1ccccn1 (stereo unspecified),–,"inconclusive: 4.61 µM [rising, full curve, poor fit]"
COc1ccc(NC(=O)C(C)NS(=O)(=O)c2ccccc2)cc1Cl (stereo unspecified),inactive: 5.75%,–
C/C(=N\NC(=S)NCc1ccccc1)c1ccc(C#N)cc1,inactive: -8.21%,–
COc1ccc(/C=C/C(=O)N2CCCc3ccccc32)c(OC)c1,inactive: -3.8%,–
CSCCC(c1nnnn1-c1c(C)cccc1C)N1CCN(C/C=C/c2ccccc2)CC1 (stereo unspecified),–,"inconclusive: 29.1 µM [cytotoxic, single point]"
COc1ccc2c(c1)CCCC21NC(=O)N(CC(=O)NC(=O)NCc2ccccc2)C1=O (stereo unspecified),inactive: 11.5%,–
CCCn1c(SCC(=O)N2CC(=O)Nc3ccccc32)n[nH]c1=O,inactive: -3.24%,–
CC1CCC(CN2C(Nc3ccccc3)=NC[C@@H]2Cc2ccccc2)CC1 (stereo partly specified),inactive: -5.35%,–
Cc1cc(C(O)c2ncc(-c3ccc(Oc4ccccc4)cc3)[nH]2)ccc1F (stereo unspecified),–,"inconclusive: 29.1 µM [cytotoxic, single point]"
Cn1cc(C(=O)N/N=C/C(Br)=C/c2ccccc2)ccc1=O,–,"inconclusive: 29.1 µM [cytotoxic, single point]"
O=C(CNC(c1ccccc1)c1ccccc1)Nc1cc([N+](=O)[O-])ccc1Cl,–,"inconclusive: 23.1 µM [cytotoxic, single point]"

# 3 entries from above, reformatted.
Structure (SMILES)	activity change, negative = cytotoxic	Potency
Oc1[nH]c2c(Cl)cc(Cl)cc2c1N=NC(=S)NCC1CCCO1 (stereo unspecified)	–	active: 5.8 µM
COc1ccc2c(c1)CCCC21NC(=O)N(CC(=O)NC(=O)NCc2ccccc2)C1=O (stereo unspecified)	inactive: 11.5%	–
Cn1cc(C(=O)N/N=C/C(Br)=C/c2ccccc2)ccc1=O	–	inconclusive: 29.1 µM [cytotoxic, single point]

# Continuation:

Structure (SMILES),"activity change, negative = cytotoxic",Potency
CCC(C)(C)n1nnnc1CN(Cc1ccc(Cl)cc1)Cc1ccco1,–,active: 20.6 µM
COc1ccc(/C=C/C(=O)c2ccc(OC)cc2OC)c(OC)c1,–,"inconclusive: 29.1 µM [cytotoxic, single point]"
O=C(Nc1ccc([N+](=O)[O-])cc1Cl)c1cc(Br)ccc1O,–,active: 2.31 µM
Cc1cccc(C)c1NC(=O)c1cccc2c1-c1ccccc1C2=O,inactive: 25.6%,–
CCN1CCCc2cc(CN(CCN3CCOCC3)C(=S)Nc3cc(F)cc(F)c3)ccc21,–,"inconclusive: 2.91 µM [cytotoxic, partial curve]"
CCOC(=O)c1ccc(NC(=O)CCc2nc(-c3cccc(C)c3)no2)cc1,–,"inconclusive: 18.4 µM [cytotoxic, single point]"
Cc1cccc(NC(=S)NNC(=O)CCn2nc(C)c([N+](=O)[O-])c2C)c1,inactive: 6.05%,–
Cc1cc(NC(=O)Cn2cc(C(F)(F)F)cc(Cl)c2=O)no1,inactive: 12.8%,–
Cc1ccc(C2CC(=O)n3nc(-c4ccc(F)cc4)nc3S2)cc1 (stereo unspecified),–,"inconclusive: 23.1 µM [rising, partial curve, poor fit]"
Cc1ccc(Cl)cc1NC(=O)c1sc2nc(C)c(C)c(C)c2c1N,inactive: -8.4%,–
CCCCNc1c(-c2ccc(SC(C)CC)c(OC)c2)nc2ccc(Cl)cn12 (stereo unspecified),inactive: -5.86%,–
CCN(CC)CCCNC(=O)c1cc2c(Cl)nc3ccccc3c2s1,–,"inconclusive: 29.1 µM [cytotoxic, single point]"
O=c1cc(CN2CCN(c3ccc(F)cc3)CC2)c2cc3c(cc2o1)CCCC3,–,"inconclusive: 29.1 µM [cytotoxic, single point]"
Cc1ccc(-c2cnc(C3CC3)o2)cc1S(=O)(=O)Nc1cccc(C#N)c1,inactive: 0%,–
O=C(Cc1cccs1)NCCS(=O)(=O)N1CCN(c2ccccc2)CC1,inactive: -0.724%,–
COc1ccc(/C=C2\SC(=N)N(c3ccc(F)cc3)C2=O)cc1OC,–,"inconclusive: 29.1 µM [cytotoxic, single point]"
CC1C(=O)N(Cc2cn(CCC3OCCO3)nn2)CCS(=O)(=O)N1Cc1ccc(-c2ccc(Cl)cc2)cc1 (stereo unspecified),–,"inconclusive: 29.1 µM [cytotoxic, single point]"
COc1ccc(NC(=O)CN2CCC(NC(=O)c3ccc(OC)cc3)CC2)cc1,inactive: 19.9%,–
O=C(COc1ccc(Cl)cc1Cl)Nc1ccccc1F,–,"inconclusive: 3.66 µM [cytotoxic, partial curve, poor fit]"
CCn1c(COc2ccc3c(c2)CCCC3)nnc1SCC(=O)Nc1ccc(C(=O)OC)cc1,–,"inconclusive: 20.6 µM [cytotoxic, single point]"
CCN(CC)C(=O)COc1ccc(/C(C)=N/Nc2ncc(Cl)cc2Cl)cc1,inactive: -3.99%,–
Cc1ccc(-n2cc(CNCCCn3cccn3)c(-c3cccc(C)c3)n2)cc1,–,"inconclusive: 25.9 µM [cytotoxic, single point]"
COCCN1C(=O)c2oc3cc(C)c(C)cc3c(=O)c2C1c1ccc(O)cc1 (stereo unspecified),–,"inconclusive: 7.31 µM [rising, partial curve, poor fit]"

# From PubChem BioAssay AID1347075 (National Center for Advancing Translational Sciences (NCATS), 2019)
